We go through 43 targets from the supplement of paper PMC12067093, “Discovery and optimisation of a covalent ligand for TRIM25 and its application to targeted protein ubiquitination” (Chemical Science, 2025).

The chains behind the UniProt entries cited, without tags or fusion partners. Where a name states a change or a piece, a line headed by the entry shows the natural chain unless it says otherwise.
UniProt P49736, whole entry, looked up: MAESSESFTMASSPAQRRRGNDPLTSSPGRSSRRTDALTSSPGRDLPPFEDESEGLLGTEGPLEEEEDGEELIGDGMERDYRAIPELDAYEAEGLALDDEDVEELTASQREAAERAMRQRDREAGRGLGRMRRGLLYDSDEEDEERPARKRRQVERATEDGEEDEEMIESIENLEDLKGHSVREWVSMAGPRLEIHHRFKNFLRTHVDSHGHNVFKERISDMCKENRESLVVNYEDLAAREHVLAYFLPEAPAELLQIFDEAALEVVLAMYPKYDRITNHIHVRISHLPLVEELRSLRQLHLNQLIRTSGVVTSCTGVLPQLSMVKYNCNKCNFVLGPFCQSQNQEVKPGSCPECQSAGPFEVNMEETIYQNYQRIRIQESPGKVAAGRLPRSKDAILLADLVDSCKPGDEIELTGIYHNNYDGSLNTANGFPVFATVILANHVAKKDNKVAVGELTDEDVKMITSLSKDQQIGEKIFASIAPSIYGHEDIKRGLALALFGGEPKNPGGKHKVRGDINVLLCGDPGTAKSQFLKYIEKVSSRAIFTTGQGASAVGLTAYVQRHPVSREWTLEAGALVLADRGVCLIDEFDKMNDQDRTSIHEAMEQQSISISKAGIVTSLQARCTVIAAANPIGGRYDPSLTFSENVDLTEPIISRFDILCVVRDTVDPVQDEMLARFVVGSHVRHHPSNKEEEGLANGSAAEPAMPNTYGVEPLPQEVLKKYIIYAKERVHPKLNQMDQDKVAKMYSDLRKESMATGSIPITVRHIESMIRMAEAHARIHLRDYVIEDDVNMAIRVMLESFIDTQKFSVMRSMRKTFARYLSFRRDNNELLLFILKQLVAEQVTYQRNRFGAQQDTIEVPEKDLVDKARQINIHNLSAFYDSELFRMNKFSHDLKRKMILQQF
UniProt Q14566: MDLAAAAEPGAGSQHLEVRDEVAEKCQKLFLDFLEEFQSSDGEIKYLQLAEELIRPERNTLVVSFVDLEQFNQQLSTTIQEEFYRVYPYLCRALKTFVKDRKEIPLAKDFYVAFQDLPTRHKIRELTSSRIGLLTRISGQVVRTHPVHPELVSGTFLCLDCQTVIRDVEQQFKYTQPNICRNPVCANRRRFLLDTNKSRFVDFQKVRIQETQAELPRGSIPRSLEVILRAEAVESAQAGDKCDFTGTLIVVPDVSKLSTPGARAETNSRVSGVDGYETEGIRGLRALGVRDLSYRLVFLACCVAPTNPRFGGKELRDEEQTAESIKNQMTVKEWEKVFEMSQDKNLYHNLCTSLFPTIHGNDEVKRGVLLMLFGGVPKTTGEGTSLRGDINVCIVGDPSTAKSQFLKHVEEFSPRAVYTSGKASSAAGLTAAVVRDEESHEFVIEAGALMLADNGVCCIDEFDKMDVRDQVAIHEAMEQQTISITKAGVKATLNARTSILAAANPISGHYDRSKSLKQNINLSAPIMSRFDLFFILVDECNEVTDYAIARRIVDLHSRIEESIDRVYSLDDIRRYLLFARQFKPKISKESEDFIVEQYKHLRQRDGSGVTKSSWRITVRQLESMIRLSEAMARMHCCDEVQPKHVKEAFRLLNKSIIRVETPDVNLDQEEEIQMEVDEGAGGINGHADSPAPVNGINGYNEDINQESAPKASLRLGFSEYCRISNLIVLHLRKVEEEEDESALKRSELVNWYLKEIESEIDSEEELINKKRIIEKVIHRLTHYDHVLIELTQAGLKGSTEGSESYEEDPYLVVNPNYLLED
UniProt P08582: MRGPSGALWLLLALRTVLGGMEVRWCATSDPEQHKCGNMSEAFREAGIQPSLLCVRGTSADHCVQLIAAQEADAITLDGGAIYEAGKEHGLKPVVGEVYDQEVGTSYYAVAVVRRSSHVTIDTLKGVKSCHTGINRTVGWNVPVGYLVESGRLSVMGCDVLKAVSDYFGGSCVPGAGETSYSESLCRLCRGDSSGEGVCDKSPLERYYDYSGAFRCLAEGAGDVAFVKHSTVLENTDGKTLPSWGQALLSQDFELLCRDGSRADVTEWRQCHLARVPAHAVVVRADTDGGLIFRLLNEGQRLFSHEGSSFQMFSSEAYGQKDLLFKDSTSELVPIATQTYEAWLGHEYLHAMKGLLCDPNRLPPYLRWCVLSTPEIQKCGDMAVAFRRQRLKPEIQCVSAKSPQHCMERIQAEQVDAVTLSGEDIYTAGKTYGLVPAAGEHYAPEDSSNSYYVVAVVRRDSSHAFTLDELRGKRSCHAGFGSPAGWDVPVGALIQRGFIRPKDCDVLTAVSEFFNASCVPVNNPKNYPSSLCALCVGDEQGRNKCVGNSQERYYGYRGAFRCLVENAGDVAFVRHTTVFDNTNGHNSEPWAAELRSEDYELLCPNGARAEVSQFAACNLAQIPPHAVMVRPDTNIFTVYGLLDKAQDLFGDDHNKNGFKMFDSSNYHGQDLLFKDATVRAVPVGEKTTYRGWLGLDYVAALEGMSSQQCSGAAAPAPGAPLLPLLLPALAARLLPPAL
UniProt Q7L2J0: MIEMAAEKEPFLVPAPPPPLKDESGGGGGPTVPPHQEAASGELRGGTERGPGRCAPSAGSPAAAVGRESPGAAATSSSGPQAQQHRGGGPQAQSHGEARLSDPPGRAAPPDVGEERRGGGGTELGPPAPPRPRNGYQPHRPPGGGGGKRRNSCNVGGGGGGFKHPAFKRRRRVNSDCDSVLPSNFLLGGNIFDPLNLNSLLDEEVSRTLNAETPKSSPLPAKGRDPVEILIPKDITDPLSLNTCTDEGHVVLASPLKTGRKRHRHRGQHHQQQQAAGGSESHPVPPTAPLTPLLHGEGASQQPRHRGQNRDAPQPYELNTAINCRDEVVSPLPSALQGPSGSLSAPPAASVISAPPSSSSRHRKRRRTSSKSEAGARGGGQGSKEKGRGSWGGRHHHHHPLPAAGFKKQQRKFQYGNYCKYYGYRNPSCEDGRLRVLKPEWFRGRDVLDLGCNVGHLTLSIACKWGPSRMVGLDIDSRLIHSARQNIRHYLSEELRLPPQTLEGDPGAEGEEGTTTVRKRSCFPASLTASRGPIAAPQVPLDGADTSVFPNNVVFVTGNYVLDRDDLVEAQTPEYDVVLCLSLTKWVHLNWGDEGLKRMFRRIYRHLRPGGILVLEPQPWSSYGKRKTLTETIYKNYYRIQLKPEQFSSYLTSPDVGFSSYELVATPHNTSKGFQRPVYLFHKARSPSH
UniProt O15553: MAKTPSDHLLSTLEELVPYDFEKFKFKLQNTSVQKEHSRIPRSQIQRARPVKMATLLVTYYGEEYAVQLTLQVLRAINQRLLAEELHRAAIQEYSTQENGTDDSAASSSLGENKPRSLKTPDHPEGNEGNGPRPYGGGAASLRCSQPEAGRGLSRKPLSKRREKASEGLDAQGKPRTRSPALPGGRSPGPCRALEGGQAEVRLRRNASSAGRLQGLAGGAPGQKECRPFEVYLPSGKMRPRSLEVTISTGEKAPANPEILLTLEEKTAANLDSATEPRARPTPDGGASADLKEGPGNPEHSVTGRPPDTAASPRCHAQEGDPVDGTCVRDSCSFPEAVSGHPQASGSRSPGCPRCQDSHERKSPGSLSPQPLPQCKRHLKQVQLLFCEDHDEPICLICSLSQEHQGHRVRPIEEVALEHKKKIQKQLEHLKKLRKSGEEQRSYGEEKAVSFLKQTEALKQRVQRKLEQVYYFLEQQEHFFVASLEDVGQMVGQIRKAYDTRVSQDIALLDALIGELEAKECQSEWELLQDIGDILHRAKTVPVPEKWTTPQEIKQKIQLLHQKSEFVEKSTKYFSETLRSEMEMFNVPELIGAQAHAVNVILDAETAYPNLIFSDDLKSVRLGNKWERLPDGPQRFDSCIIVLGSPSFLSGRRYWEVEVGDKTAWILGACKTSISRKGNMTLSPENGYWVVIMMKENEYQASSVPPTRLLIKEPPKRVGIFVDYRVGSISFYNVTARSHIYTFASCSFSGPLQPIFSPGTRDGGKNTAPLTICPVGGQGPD
UniProt Q8N6R0: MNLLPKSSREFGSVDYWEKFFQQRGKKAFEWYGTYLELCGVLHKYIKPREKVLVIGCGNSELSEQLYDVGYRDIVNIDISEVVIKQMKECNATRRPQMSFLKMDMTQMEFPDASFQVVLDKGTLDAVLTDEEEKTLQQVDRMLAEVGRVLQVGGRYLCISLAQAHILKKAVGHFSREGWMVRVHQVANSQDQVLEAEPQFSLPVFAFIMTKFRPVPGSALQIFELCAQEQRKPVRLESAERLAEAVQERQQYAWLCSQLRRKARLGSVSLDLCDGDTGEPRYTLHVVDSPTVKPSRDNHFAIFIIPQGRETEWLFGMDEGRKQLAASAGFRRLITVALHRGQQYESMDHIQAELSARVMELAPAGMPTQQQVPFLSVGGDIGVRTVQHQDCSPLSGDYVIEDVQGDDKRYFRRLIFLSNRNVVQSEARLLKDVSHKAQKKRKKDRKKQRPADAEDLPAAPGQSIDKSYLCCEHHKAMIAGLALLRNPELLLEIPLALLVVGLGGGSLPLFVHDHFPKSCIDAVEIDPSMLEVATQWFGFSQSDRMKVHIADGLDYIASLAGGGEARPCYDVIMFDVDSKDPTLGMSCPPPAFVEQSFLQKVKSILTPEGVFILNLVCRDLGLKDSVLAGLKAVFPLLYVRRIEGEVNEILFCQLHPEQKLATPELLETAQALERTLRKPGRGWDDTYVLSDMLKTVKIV
UniProt Q9HCC0: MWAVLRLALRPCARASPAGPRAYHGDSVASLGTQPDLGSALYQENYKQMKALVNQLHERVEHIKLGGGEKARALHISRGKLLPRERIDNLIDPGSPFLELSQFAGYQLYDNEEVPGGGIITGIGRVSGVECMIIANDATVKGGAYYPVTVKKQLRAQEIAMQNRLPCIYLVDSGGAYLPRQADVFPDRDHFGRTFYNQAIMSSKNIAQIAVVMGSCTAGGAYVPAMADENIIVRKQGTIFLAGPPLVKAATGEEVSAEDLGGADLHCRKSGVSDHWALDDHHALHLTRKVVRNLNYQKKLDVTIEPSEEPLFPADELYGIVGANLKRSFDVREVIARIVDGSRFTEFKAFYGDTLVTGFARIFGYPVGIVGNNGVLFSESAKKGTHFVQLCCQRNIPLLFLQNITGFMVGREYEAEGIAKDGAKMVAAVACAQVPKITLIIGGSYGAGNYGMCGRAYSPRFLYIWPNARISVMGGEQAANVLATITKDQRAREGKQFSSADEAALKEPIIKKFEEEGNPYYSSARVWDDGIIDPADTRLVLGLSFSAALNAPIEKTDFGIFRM
UniProt Q9ULC4: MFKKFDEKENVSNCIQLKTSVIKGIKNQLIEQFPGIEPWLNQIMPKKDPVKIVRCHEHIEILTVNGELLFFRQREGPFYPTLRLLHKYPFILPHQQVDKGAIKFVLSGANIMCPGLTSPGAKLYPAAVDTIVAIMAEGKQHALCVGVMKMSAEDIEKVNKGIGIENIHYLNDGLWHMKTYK
UniProt Q5VZF2: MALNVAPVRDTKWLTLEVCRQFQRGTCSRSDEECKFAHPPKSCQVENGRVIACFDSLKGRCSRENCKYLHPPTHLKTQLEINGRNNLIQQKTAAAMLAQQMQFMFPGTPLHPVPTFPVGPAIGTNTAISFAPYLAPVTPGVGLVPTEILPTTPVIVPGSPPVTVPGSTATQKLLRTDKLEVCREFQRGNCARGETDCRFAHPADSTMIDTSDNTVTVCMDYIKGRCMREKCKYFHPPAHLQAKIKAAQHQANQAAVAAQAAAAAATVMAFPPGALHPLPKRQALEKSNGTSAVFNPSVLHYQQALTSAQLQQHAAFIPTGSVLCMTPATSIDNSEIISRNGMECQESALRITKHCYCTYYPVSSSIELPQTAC
UniProt Q96PE7: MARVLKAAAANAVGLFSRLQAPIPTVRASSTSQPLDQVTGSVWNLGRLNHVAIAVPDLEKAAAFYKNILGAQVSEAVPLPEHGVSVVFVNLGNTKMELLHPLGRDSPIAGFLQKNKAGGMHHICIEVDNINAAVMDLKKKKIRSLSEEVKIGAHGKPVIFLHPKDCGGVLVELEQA
UniProt Q05BQ5, whole entry, looked up: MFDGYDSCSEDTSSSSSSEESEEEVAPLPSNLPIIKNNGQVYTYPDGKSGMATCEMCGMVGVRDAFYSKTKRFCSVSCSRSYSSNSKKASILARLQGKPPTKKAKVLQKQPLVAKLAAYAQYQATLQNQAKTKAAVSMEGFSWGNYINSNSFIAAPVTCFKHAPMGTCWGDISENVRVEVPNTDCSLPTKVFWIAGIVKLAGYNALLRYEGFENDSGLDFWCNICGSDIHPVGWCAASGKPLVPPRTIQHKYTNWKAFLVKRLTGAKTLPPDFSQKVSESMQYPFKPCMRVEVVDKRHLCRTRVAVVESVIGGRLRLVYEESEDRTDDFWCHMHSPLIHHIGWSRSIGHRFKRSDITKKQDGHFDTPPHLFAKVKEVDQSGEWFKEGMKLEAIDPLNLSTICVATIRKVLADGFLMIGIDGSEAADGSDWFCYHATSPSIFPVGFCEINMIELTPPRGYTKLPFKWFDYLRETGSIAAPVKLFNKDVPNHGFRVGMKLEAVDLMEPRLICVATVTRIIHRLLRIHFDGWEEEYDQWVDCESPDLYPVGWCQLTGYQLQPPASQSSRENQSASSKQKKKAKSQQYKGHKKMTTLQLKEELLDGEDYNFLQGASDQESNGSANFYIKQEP

The other results are listed elsewhere or left out.

Compound in this assay: CC1Cc2ccccc2N1C(=O)C1CCCN(C1)C(=O)CCl (mixture of isomers) [TRIM25 ligand 11 (diastereomer mixture)]
Nature of the assay: probe-labelled cysteine peptide fold change vs DMSO (competition) (log2 fold change); higher = less target engagement (more negative = stronger competition). The note with it: THP-1, incubation time: 4 h.
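Further: competitive chemoproteomic profiling in live THP-1 cells with an iodoacetamide desthiobiotin (IA-DTB) probe, comparing probe-labelled peptide intensities in compound-treated cells against DMSO-treated controls.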

On to “MED13L_Q71F56_1919_DWSILLGECSLQTISK (UniProt Q71F56)”, for which the “probe-labelled cysteine peptide fold change” value reads like this: (10 µM) 0.138; (50 µM) 0.061.
For the target “MCM2_P49736_315_TSGVVTSCTGVLPQLSMVK (UniProt P49736)”, the “probe-labelled cysteine peptide fold change” value by setting is: (10 µM) 0.161; (50 µM) -0.0664.
In the case of “MCM3AP_O60318_588_AHQFEGDSFDSASEGSEGLGPCVLSLSTLIGTVAETSK (UniProt O60318)”, the “probe-labelled cysteine peptide fold change” value (10 µM) was -0.101 and the “probe-labelled cysteine peptide fold change” value (50 µM) is -0.204.
As for “MCM6_Q14566_242_AEAVESAQAGDKCDFTGTLIVVPDVSK (UniProt Q14566)”, the “probe-labelled cysteine peptide fold change” value runs as follows: (10 µM) -0.114; (50 µM) -0.0827.
Consider “MEMO1_Q9Y316_88_CALSSVDIYR (UniProt Q9Y316)”, for which the “probe-labelled cysteine peptide fold change” value (10 µM) was 0.0273 and the “probe-labelled cysteine peptide fold change” value (50 µM) came to 0.158.
Consider “MELTF_P08582_216_CLAEGAGDVAFVK (UniProt P08582)”, for which the “probe-labelled cysteine peptide fold change” value is -0.159 (10 µM) and -0.0352 (50 µM).
For “MEPCE_Q7L2J0_419_KFQYGNYCK (UniProt Q7L2J0)”, in that order: -0.0656 and -0.123.
For “METTL16_Q86W50_276_VTYTEFCQGR (UniProt Q86W50)”, the “probe-labelled cysteine peptide fold change” value was 0.122 (10 µM) and -0.0349 (50 µM).
As for “MCM6_Q14566_180_YTQPNICR (UniProt Q14566)”, the “probe-labelled cysteine peptide fold change” value by setting is: (10 µM) -0.0548; (50 µM) 0.062.
In the case of “MEFV_O15553_521_ECQSEWELLQDIGDILHR (UniProt O15553)”, the “probe-labelled cysteine peptide fold change” value is, setting by setting: (10 µM) -0.159; (50 µM) -0.12.
The like results for “MFAP3_P55082_73_EGTSVSIECLLTASHYEDVHWHNSK (UniProt P55082)” were, in that order, 0.179 and 0.0374.
Regarding “MCM3AP_O60318_931_DCEEATDFLTCHGLTVSDGCVELNR (UniProt O60318)”, the “probe-labelled cysteine peptide fold change” value is 0.0707 (10 µM) and -0.2 (50 µM).
As to “METTL13_Q8N6R0_90_ECNATR (UniProt Q8N6R0)”, the “probe-labelled cysteine peptide fold change” value runs as follows: (10 µM) 0.0646; (50 µM) 0.0904.
For “MCM5_P33992_482_CSVLAAANSVFGR (UniProt P33992)”, the “probe-labelled cysteine peptide fold change” value (10 µM) is 0.14 and the “probe-labelled cysteine peptide fold change” value (50 µM) turned out to be 0.166.
Turning to “MDN1_Q9NU22_3308_MDRLDNLTCHLLK (UniProt Q9NU22)”, the “probe-labelled cysteine peptide fold change” value (10 µM) was -0.0746 and the “probe-labelled cysteine peptide fold change” value (50 µM) was -0.191.
Consider “MEFV_O15553_332_DSCSFPEAVSGHPQASGSR (UniProt O15553)”, for which the “probe-labelled cysteine peptide fold change” value was 0.0103 (10 µM) and -0.244 (50 µM).
For “MCCC2_Q9HCC0_267_AATGEEVSAEDLGGADLHCR (UniProt Q9HCC0)”, the “probe-labelled cysteine peptide fold change” value was -0.139 (10 µM) and -0.276 (50 µM).
Regarding “MCTS1_Q9ULC4_55_CHEHIEILTVNGELLFFR (UniProt Q9ULC4)”, the “probe-labelled cysteine peptide fold change” value runs as follows: (10 µM) 0.0262; (50 µM) 0.119.
With “MED7_O43513_197_TEPMDADDSNNCTGQNEHQR (UniProt O43513)”, the “probe-labelled cysteine peptide fold change” value was 0.104 (10 µM) and -0.344 (50 µM).
The like results for “METAP1_P53582_255_KLVQTTYECLMQAIDAVKPGVR (UniProt P53582)” were, in that order, -0.564 and -0.516.
“MDH2_P40926_275_EGVVECSFVK (UniProt P40926)”: the “probe-labelled cysteine peptide fold change” value worked out at 0.0473 (10 µM) and 0.0859 (50 µM).
Consider “MEPCE_Q7L2J0_452_GRDVLDLGCNVGHLTLSIACK (UniProt Q7L2J0)”, for which the “probe-labelled cysteine peptide fold change” value by setting is: (10 µM) -0.015; (50 µM) -0.00453.
With “METTL13_Q8N6R0_273_LGSVSLDLCDGDTGEPR (UniProt Q8N6R0)”, the “probe-labelled cysteine peptide fold change” value reads like this: (10 µM) -0.0246; (50 µM) 0.00617.
On to “METTL7B_Q6UX53_203_HIGDGCCLTR (UniProt Q6UX53)”, for which the “probe-labelled cysteine peptide fold change” value is, setting by setting: (10 µM) 0.0339; (50 µM) -0.00446.
For the target “MBNL2_Q5VZF2_43_SCQVENGR (UniProt Q5VZF2)”, the “probe-labelled cysteine peptide fold change” value is -0.14 (10 µM) and -0.146 (50 µM).
For the target “MGA_Q8IWI9_1071_RQPAHCR (UniProt Q8IWI9)”, the “probe-labelled cysteine peptide fold change” value by setting is: (10 µM) -0.0749; (50 µM) 0.0395.
With “MCEE_Q96PE7_166_DCGGVLVELEQA (UniProt Q96PE7)”, the “probe-labelled cysteine peptide fold change” value is -0.00109 (10 µM) and -0.223 (50 µM).
Regarding “MBTD1_Q05BQ5_185_VEVPNTDCSLPTK (UniProt Q05BQ5)”, the “probe-labelled cysteine peptide fold change” value is, setting by setting: (10 µM) 0.226; (50 µM) 0.0407.
In the case of “METTL5_Q9NRN9_107+110_NAEEFELTNIDMVQCDVCLLSNR (UniProt Q9NRN9)”, the “probe-labelled cysteine peptide fold change” value by setting is: (10 µM) -0.067; (50 µM) -0.00432.
For the target “MED15_Q96RN5_660_TFVPAMTAIHGPPITAPVVCTR (UniProt Q96RN5)”, the “probe-labelled cysteine peptide fold change” value was -0.0884 (10 µM) and -0.0434 (50 µM).
Consider “MCM3_P25205_319_KAILCLLLGGVER (UniProt P25205)”, for which the “probe-labelled cysteine peptide fold change” value is -0.356 (10 µM) and -0.177 (50 µM).
For “MCM7_P33993_482_CSILAAANPAYGR (UniProt P33993)”, in that order: -0.0176 and -0.037.
For the target “METAP2_P50579_468_GSYTAQFEHTILLRPTCK (UniProt P50579)”, the “probe-labelled cysteine peptide fold change” value by setting is: (10 µM) -0.0265; (50 µM) -0.075.
As to “MCM2_P49736_624_CTVIAAANPIGGR (UniProt P49736)”, the “probe-labelled cysteine peptide fold change” value runs as follows: (10 µM) 0.0682; (50 µM) 0.0292.
As for “MCM6_Q14566_721_LGFSEYCR (UniProt Q14566)”, the “probe-labelled cysteine peptide fold change” value was 0.0954 (10 µM) and 0.111 (50 µM).
As to “MEPCE_Q7L2J0_419_FQYGNYCK (UniProt Q7L2J0)”, the “probe-labelled cysteine peptide fold change” value reads like this: (10 µM) 0.0499; (50 µM) -0.0304.
Consider “MED28_Q9H204_93_QTECFFLQK (UniProt Q9H204)”, for which the “probe-labelled cysteine peptide fold change” value is, setting by setting: (10 µM) -0.159; (50 µM) -0.336.
Regarding “MDN1_Q9NU22_1332_KLCPQSLFSK (UniProt Q9NU22)”, the “probe-labelled cysteine peptide fold change” value is, setting by setting: (10 µM) -0.248; (50 µM) -0.123.
“MCCC2_Q9HCC0_431_MVAAVACAQVPK (UniProt Q9HCC0)”: the “probe-labelled cysteine peptide fold change” value (10 µM) was found to be 0.0133 and the “probe-labelled cysteine peptide fold change” value (50 µM) is -0.0336.
For the target “METTL5_Q9NRN9_38_LLLEQYPTRPHIAACMLYTIHNTYDDIENK (UniProt Q9NRN9)”, the “probe-labelled cysteine peptide fold change” value was 0.0663 (10 µM) and 0.0583 (50 µM).
As to “MED13_Q9UHV7_1228_DCCNDCYLALEHGR (UniProt Q9UHV7)”, the “probe-labelled cysteine peptide fold change” value (10 µM) was found to be 0.0983 and the “probe-labelled cysteine peptide fold change” value (50 µM) is -0.00312.
“MELTF_P08582_397_LKPEIQCVSAK (UniProt P08582)”: the “probe-labelled cysteine peptide fold change” value by setting is: (10 µM) 0.0877; (50 µM) -0.00766.
As to “MEN1_O00255_414_EAASLLEAGEERPGEQSQGTQSQGSALQDPECFAHLLR (UniProt O00255)”, the “probe-labelled cysteine peptide fold change” value was 0.233 (10 µM) and -0.0122 (50 µM).
